From PMC7862700
The entries are a selection whose mix differs from that of the whole data set. At the low end of the ranking the order means little.

By UniProt entry, the sequences of proteins in these tests, tags left out. Where a name states a change or a piece, a line headed by the entry shows the natural chain unless it says otherwise.
UniProt Q01892: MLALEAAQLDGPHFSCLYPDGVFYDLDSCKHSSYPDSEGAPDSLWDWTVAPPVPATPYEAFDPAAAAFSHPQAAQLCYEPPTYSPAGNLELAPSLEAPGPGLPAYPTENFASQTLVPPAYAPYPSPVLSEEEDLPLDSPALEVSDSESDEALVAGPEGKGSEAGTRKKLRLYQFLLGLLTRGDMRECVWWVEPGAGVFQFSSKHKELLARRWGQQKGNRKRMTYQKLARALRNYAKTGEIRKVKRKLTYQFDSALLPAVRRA
UniProt P41161: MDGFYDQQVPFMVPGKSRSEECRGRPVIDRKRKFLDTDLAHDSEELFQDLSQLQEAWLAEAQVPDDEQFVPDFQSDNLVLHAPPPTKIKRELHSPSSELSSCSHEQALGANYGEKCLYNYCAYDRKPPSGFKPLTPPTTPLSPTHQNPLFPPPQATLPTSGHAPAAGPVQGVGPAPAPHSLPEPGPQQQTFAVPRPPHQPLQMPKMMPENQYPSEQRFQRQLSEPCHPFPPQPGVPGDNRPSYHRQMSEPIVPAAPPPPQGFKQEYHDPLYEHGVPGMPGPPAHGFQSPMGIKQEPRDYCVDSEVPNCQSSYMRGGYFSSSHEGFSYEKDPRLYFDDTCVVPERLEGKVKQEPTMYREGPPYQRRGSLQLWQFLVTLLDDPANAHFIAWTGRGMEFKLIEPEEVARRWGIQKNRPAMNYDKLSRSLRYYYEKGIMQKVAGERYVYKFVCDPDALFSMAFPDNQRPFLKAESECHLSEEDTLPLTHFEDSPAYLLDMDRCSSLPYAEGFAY
UniProt Q99607: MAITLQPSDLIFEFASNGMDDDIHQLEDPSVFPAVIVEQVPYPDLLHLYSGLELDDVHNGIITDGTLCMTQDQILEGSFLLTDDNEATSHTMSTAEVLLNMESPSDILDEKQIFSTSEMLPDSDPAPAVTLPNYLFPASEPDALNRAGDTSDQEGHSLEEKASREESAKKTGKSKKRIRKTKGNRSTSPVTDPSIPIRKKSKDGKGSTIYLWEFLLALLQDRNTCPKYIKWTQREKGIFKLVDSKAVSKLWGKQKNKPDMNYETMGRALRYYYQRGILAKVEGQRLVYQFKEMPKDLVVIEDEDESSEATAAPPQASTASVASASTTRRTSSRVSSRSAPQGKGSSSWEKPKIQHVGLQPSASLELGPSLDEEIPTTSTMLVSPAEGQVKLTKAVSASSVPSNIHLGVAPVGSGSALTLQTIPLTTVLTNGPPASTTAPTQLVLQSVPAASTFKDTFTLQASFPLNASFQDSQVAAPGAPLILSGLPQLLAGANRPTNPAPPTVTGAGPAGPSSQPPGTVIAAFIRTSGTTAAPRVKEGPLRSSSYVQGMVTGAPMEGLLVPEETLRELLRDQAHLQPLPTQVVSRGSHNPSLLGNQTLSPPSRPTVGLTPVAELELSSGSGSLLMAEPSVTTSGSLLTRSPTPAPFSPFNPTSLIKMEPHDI

Tests used:
Test in all cases: DAPPL (digital affinity profiling via proximity ligation, sequencing)
Conditions in all cases: 10 mM Tris-HCl pH 7.5, 50 mM NaCl, 1 mM DTT, 4% glycerol, room temperature, 30 min; GST-TFs on glutathione beads, 16-mer random dsDNA library, 0.1% …; high values mean tight binding; double strand, one strand shown; scale: fold enrichment (6-mer frequency, TF over GST control)
[1] = target: T1, FLI1 (UniProt Q01543)
T1 sequence: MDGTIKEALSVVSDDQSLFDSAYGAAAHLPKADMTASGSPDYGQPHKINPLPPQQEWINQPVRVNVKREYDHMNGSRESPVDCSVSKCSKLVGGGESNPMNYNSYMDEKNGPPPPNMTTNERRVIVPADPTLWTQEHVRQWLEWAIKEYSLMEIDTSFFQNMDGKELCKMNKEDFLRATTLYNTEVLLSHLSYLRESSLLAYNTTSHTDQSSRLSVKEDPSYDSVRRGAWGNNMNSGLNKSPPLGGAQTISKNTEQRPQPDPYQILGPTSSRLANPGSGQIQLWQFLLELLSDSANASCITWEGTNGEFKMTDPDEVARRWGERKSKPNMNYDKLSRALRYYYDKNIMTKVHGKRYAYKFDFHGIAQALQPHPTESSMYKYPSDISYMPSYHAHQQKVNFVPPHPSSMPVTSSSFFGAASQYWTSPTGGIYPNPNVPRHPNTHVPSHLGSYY

[2] = target: T2, EHF (UniProt Q9NZC4)
T2 sequence: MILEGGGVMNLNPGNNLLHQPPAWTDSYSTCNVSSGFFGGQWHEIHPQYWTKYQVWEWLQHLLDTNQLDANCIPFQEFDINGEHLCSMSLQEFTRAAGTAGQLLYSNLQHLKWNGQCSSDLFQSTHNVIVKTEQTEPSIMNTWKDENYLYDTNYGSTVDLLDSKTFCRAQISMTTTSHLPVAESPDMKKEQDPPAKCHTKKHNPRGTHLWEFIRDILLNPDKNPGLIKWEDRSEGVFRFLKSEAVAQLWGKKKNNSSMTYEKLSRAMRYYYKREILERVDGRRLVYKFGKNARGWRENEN

[3] = target: SPIB (UniProt Q01892)
[4] = target: ETV5 (UniProt P41161)
[5] = target: ELF4 (UniProt Q99607)
[6] = target: T3, ETV2 (UniProt O00321)
T3 sequence: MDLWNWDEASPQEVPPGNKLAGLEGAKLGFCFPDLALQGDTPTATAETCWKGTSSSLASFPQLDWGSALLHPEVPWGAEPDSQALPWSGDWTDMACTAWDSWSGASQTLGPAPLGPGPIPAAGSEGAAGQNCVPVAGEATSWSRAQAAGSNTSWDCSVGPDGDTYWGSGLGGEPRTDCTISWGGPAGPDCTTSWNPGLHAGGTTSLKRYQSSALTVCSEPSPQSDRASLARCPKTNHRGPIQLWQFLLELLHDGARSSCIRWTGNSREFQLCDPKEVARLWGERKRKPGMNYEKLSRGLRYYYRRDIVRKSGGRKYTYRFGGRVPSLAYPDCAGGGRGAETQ

[7] = target: T4, ETV3L (UniProt Q6ZN32)
T4 sequence: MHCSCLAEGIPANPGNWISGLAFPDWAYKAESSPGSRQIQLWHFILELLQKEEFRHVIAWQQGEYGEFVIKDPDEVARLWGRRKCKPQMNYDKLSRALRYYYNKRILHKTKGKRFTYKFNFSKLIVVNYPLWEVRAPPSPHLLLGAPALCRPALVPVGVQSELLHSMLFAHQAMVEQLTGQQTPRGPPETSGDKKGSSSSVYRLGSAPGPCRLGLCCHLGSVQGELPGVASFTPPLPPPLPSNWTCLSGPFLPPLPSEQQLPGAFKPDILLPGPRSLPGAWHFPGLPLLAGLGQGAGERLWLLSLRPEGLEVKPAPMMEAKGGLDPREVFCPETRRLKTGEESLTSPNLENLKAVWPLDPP

Sequence | binding signal [1] | binding signal [2] | binding signal [3] | binding signal [4] | binding signal [5] | binding signal [6] | binding signal [7]
GCGATA | 0.956 | 0.994 | 1.02 | 0.974 | 0.978 | 1.11 | –
GTTGCC | 0.866 | 0.875 | 0.937 | 0.884 | 0.938 | 0.819 | –
AATACG | 1.11 | – | – | 1.27 | 1.29 | – | 1.23
GTCATT | 0.934 | 0.944 | 0.923 | 0.939 | 0.98 | 0.938 | –
AGGATT | 0.975 | 0.939 | 0.916 | 0.956 | 0.94 | 0.96 | –
GCGATC | 0.951 | 0.973 | 0.93 | 0.925 | 0.992 | 0.965 | –
CACGGC | 0.98 | 0.912 | 0.997 | 0.978 | 0.954 | 0.797 | –
CCGAAC | 1.26 | – | 1.2 | 1.27 | 1.26 | 1.36 | –
GGTTAC | 0.988 | 0.97 | 0.995 | 0.951 | 0.987 | 0.944 | –
TCTGAG | 0.975 | – | 0.92 | 0.939 | 0.918 | 0.993 | –
TTAGGC | 0.915 | 0.928 | 0.939 | 0.988 | 0.986 | 0.918 | –
CATCAA | 0.937 | 0.995 | 0.956 | 0.994 | 1.05 | 0.931 | –
CGCGCA | 0.964 | 1.07 | – | 0.921 | 0.974 | – | 0.994
GCAAAG | 0.907 | 0.936 | 0.941 | 0.874 | 0.889 | – | 0.889
GCAGAT | 0.935 | 0.914 | – | 0.978 | 0.956 | – | 0.904
CGGCCC | 1.05 | 0.912 | – | 0.904 | 1.03 | – | 0.968
GGCAGC | 0.877 | 0.987 | 0.971 | 0.97 | 0.936 | – | 0.971
GCCTAG | 0.957 | 0.94 | 0.834 | 0.901 | 0.937 | – | 0.954
ATAGAC | 0.914 | 0.881 | 0.956 | 0.987 | 1.01 | – | 0.987
TGAACG | 0.953 | 0.959 | 0.921 | 0.944 | 0.996 | – | 0.927
CATTAG | 0.987 | 1 | 0.999 | 0.896 | 0.98 | – | 0.917
GACCGA | 0.905 | 0.836 | 0.735 | 0.824 | 0.83 | – | 0.909
AACGGT | 0.969 | 0.954 | 0.97 | 0.969 | 1.03 | – | 0.949
GTTCAG | 0.932 | 0.849 | 0.867 | 0.875 | 0.859 | – | 0.909
AGATGG | 0.859 | 0.814 | 0.833 | 0.847 | 0.858 | – | 0.909
GGCATA | 0.876 | 0.89 | 0.866 | 0.857 | 0.916 | – | 0.933

Given with tabs: entries from further up.
Sequence	binding signal [1]	binding signal [2]	binding signal [3]	binding signal [4]	binding signal [5]	binding signal [6]	binding signal [7]
TGAACG	0.953	0.959	0.921	0.944	0.996	–	0.927
CATTAG	0.987	1	0.999	0.896	0.98	–	0.917
GACCGA	0.905	0.836	0.735	0.824	0.83	–	0.909
AACGGT	0.969	0.954	0.97	0.969	1.03	–	0.949
GTTCAG	0.932	0.849	0.867	0.875	0.859	–	0.909
AGATGG	0.859	0.814	0.833	0.847	0.858	–	0.909
GGCATA	0.876	0.89	0.866	0.857	0.916	–	0.933
